# This is one part of the list.
# B1: CLEC9a (Mus musculus), Q8BRU4 (protein)
# chain: MHAEEIYTSLQWDIPTSEASQKCQSPSKCSGAWCVVTMISCVVCMGLLATSIFLGIKFFQVSSLVLEQQERLIQQDTALVNLTQWQRKYTLEYCQALLQRSLHSGSDCSPCPHNWIQNGKSCYYVFERWEMWNISKKSCLKEGASLFQIDSKEEMEFISSIGKLKGGNKYWVGVFQDGISGSWFWEDGSSPLSDLLPAERQRSAGQICGYLKDSTLISDKCDSWKYFICEKKAFGSCI
# Key:
# Test in all cases: glycan array binding signal (z-score within array); higher = stronger binding
# Settings in all cases: glycan notation: IUPAC condensed, linker removed
# [1] = target: Gal(b1-3)[Neu5Ac(a2-6)]GalNAc
# Method in brief: (§1)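 Glycan array binding is given as a within-array Z-score, which can be read as non-binding when negative. The arrays, 3228 of them, came from the Consortium for Functional Glycomics database and were retained only where the protein sequence was available. Z-scores were averaged across arrays of the same protein sequence at different concentrations or buffers and across linkers.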
# [2] = target: Gal(b1-3)[Neu5Ac(a2-6)]GlcNAc(b1-6)Gal(b1-4)Glc
# Method in brief: as §1
# [3] = target: Gal(b1-3)[Neu5Ac(b2-6)]GalNAc
# Method in brief: as §1
# [4] = target: Gal(b1-4)GalNAc(a1-3)[Fuc(a1-2)]Gal(b1-4)GlcNAc
# Method in brief: as §1
# [5] = target: Gal(b1-4)GalNAc(b1-3)[Fuc(a1-2)]Gal(b1-4)GlcNAc
# Method in brief: as §1
# Gal(b1-4)Glc = target: Gal(b1-4)Glc
# Method in brief: as §1
# Gal(b1-4)Glc6S = target: Gal(b1-4)Glc6S
# Method in brief: as §1
# Gal(b1-4)GlcNAc = target: Gal(b1-4)GlcNAc
# Method in brief: as §1
# [6] = target: Gal(b1-4)GlcNAc(a1-6)Gal(b1-4)GlcNAc
# Method in brief: as §1
# [7] = target: Gal(b1-4)GlcNAc(b1-2)Man(a1-3)Man(b1-4)GlcNAc(b1-4)GlcNAc
# Method in brief: as §1
# [8] = target: Gal(b1-4)GlcNAc(b1-2)Man(a1-3)[Gal(b1-4)GlcNAc(b1-2)Man(a1-6)]Man(b1-4)GlcNAc(b1-4)GlcNAc
# Method in brief: as §1
# [9] = target: Gal(b1-4)GlcNAc(b1-2)Man(a1-3)[Gal(b1-4)GlcNAc(b1-2)Man(a1-6)]Man(b1-4)GlcNAc(b1-4)[Fuc(a1-6)]GlcNAc
# Method in brief: as §1
# [10] = target: Gal(b1-4)GlcNAc(b1-2)Man(a1-3)[GlcNAc(b1-2)Man(a1-6)]Man(b1-4)GlcNAc(b1-4)GlcNAc
# Method in brief: as §1
# [11] = target: Gal(b1-4)GlcNAc(b1-2)Man(a1-3)[Man(a1-6)]Man(b1-4)GlcNAc(b1-4)GlcNAc
# Method in brief: as §1
# [12] = target: Gal(b1-4)GlcNAc(b1-2)Man(a1-6)Man(b1-4)GlcNAc(b1-4)GlcNAc
# Method in brief: as §1
# [13] = target: Gal(b1-4)GlcNAc(b1-2)Man(a1-6)[GlcNAc(b1-2)Man(a1-3)]Man(b1-4)GlcNAc(b1-4)GlcNAc
# Method in brief: as §1
# [14] = target: Gal(b1-4)GlcNAc(b1-2)Man(a1-6)[Man(a1-3)]Man(b1-4)GlcNAc(b1-4)GlcNAc
# Method in brief: as §1
# [15] = target: Gal(b1-4)GlcNAc(b1-2)[Gal(b1-4)GlcNAc(b1-4)]Man(a1-3)[Gal(b1-4)GlcNAc(b1-2)Man(a1-6)]Man(b1-4)GlcNAc(b1-4)GlcNAc
# Method in brief: as §1
# [16] = target: Gal(b1-4)GlcNAc(b1-2)[Gal(b1-4)GlcNAc(b1-4)]Man(a1-3)[Gal(b1-4)GlcNAc(b1-2)[Gal(b1-4)GlcNAc(b1-6)]Man(a1-6)]Man(b1-4)GlcNAc(b1-4)GlcNAc
# Method in brief: as §1
# [17] = target: Gal(b1-4)GlcNAc(b1-3)Gal(b1-3)GlcNAc
# Method in brief: as §1
# [18] = target: Gal(b1-4)GlcNAc(b1-3)Gal(b1-4)Glc
# Method in brief: as §1
# [19] = target: Gal(b1-4)GlcNAc(b1-3)Gal(b1-4)GlcNAc
# Method in brief: as §1
# [20] = target: Gal(b1-4)GlcNAc(b1-3)Gal(b1-4)GlcNAc(b1-3)Gal(b1-4)GlcNAc
# Method in brief: as §1
# [21] = target: Gal(b1-4)GlcNAc(b1-3)Gal(b1-4)[Fuc(a1-3)]GlcNAc(b1-3)Gal(b1-4)[Fuc(a1-3)]GlcNAc
# Method in brief: as §1
# [22] = target: Gal(b1-4)GlcNAc(b1-3)GalNAc
# Method in brief: as §1
# [23] = target: Gal(b1-4)GlcNAc(b1-3)[Gal(b1-4)GlcNAc(b1-6)]Gal(b1-4)GlcNAc
# Method in brief: as §1
# [24] = target: Gal(b1-4)GlcNAc(b1-3)[Gal(b1-4)GlcNAc(b1-6)]GalNAc
# Method in brief: as §1
# [25] = target: Gal(b1-4)GlcNAc(b1-3)[GlcNAc(b1-6)]Gal(b1-4)GlcNAc
# Method in brief: as §1
# [26] = target: Gal(b1-4)GlcNAc(b1-6)Gal(b1-4)GlcNAc
# Method in brief: as §1
# [27] = target: Gal(b1-4)GlcNAc(b1-6)GalNAc
# Method in brief: as §1
# [28] = target: Gal(b1-4)GlcNAc(b1-6)[Gal(b1-3)]GalNAc
# Method in brief: as §1
# Gal3S(b1-3)GalNAc = target: Gal3S(b1-3)GalNAc
# Method in brief: as §1
# Gal3S(b1-3)GlcNAc = target: Gal3S(b1-3)GlcNAc
# Method in brief: as §1
# [29] = target: Gal3S(b1-3)[Fuc(a1-4)]GlcNAc
# Method in brief: as §1
# Gal3S(b1-4)Glc = target: Gal3S(b1-4)Glc
# Method in brief: as §1
# Gal3S(b1-4)Glc6S = target: Gal3S(b1-4)Glc6S
# Method in brief: as §1
# Gal3S(b1-4)GlcNAc = target: Gal3S(b1-4)GlcNAc
# Method in brief: as §1
# Gal3S(b1-4)GlcNAc6S = target: Gal3S(b1-4)GlcNAc6S
# Method in brief: as §1
binder,measurement,setting,value
B1,glycan array binding signal (z-score),[1],-1.32
same,glycan array binding signal (z-score),[2],0.549
same,glycan array binding signal (z-score),[3],1.89
same,glycan array binding signal (z-score),[4],-1.23
same,glycan array binding signal (z-score),[5],0.3
same,glycan array binding signal (z-score),Gal(b1-4)Glc,-0.825
same,glycan array binding signal (z-score),Gal(b1-4)Glc6S,-0.33
same,glycan array binding signal (z-score),Gal(b1-4)GlcNAc,-1.06
same,glycan array binding signal (z-score),[6],0.811
same,glycan array binding signal (z-score),[7],0.687
same,glycan array binding signal (z-score),[8],-0.676
same,glycan array binding signal (z-score),[9],0.33
same,glycan array binding signal (z-score),[10],-0.435
same,glycan array binding signal (z-score),[11],-0.314
same,glycan array binding signal (z-score),[12],0.272
same,glycan array binding signal (z-score),[13],0.477
same,glycan array binding signal (z-score),[14],-1.19
same,glycan array binding signal (z-score),[15],-0.001
same,glycan array binding signal (z-score),[16],1.54
same,glycan array binding signal (z-score),[17],0.389
same,glycan array binding signal (z-score),[18],-0.295
same,glycan array binding signal (z-score),[19],0.404
same,glycan array binding signal (z-score),[20],0.231
same,glycan array binding signal (z-score),[21],1.93
same,glycan array binding signal (z-score),[22],0.253
same,glycan array binding signal (z-score),[23],0.779
same,glycan array binding signal (z-score),[24],1.87
same,glycan array binding signal (z-score),[25],-0.296
same,glycan array binding signal (z-score),[26],-0.302
same,glycan array binding signal (z-score),[27],-0.352
same,glycan array binding signal (z-score),[28],-0.235
same,glycan array binding signal (z-score),Gal3S(b1-3)GalNAc,0.21
same,glycan array binding signal (z-score),Gal3S(b1-3)GlcNAc,-0.876
same,glycan array binding signal (z-score),[29],1.28
same,glycan array binding signal (z-score),Gal3S(b1-4)Glc,0.279
same,glycan array binding signal (z-score),Gal3S(b1-4)Glc6S,-0.258
same,glycan array binding signal (z-score),Gal3S(b1-4)GlcNAc,-0.177
same,glycan array binding signal (z-score),Gal3S(b1-4)GlcNAc6S,0.269

# A different layout for part of the listing above:
binder	measurement	setting	value
B1	glycan array binding signal (z-score)	[8]	-0.676
same	glycan array binding signal (z-score)	[27]	-0.352

# From the supplement of paper PMC8728848
